According to patent US9326955B2, “Combination pharmaceuticals and methods thereof using proteinacious channels as treatments for medical conditions” (Loyola University Chicago, priority 2008, dated 2016):
For at least one compound, name, drawing or mass did not settle the structure.

Key:
Kv7 channels = assay: Perforated patch clamp of Kv7 currents in freshly isolated guinea pig ASMCs; assay type: cell-based; conditions: for effect on ASMC Kv7 currents: guinea pig ASMCs, celecoxib 10 μM at −20 mV
vascular Kv7 channels = assay: Electrophysiology of Kv7 currents in vascular smooth muscle cells; assay type: cell-based, rat and human
Method: The scope of the present invention further encompasses the tools used to measure vascular Kv7 channel activities and/or functional contributions of these channels in vascular smooth muscle cells. […] For example, flupirtine is a known Kv7 channel activator used to treat pain; plasma concentrations achieved clinically can be as high as about 12 μM with a 100 mg dose (Abrams et al., “Pharmacokinetics of flupirtine in elderly volunteers and in patients with moderate renal impairment,” Postgraduate Medical Journal, 64: 361-363 (1988)) and doses up to about 600 mg are routinely given to treat chronic pain. […] Further indications to support such predictions may be obtained by measuring the effects of drugs on constriction/dilation of pressurized arteries.

rat basilar artery = assay: Vasodilation of pre-constricted basilar artery
[1] = about 100 to 600 mg per day, patients with rheumatic disease; cited from earlier work
Sprague-Dawley rats = assay: Mean arterial pressure and mesenteric vascular resistance in anesthetized instrumented rats; assay type: in vivo, rat
rat mesenteric arteries = conditions: about 10 to 40 μM; cited from earlier work

Row | Compound | effect on ASMC Kv7 currents (Kv7 channels) | effect on vascular Kv7 channels (vascular Kv7 channels) | effect on AVP-induced basilar artery constriction (rat basilar artery; AVP pre-constriction) | vasodilation of rat basilar artery (rat basilar artery; pre-constriction with 75 nM serotonin) | reversal of methacholine suppression of Kv7 currents (Kv7 channels; 10 μM added in presence of 100 nM methacholine) | restoration of Kv7 currents suppressed by bronchoconstrictors (Kv7 channels; 10 μM, after 30 μM histamine or 100 nM methacholine) | systolic blood pressure [1] | mean arterial pressure (MAP) (Sprague-Dawley rats) | mesenteric vascular resistance (MVR) (Sprague-Dawley rats) | effect on rat mesenteric arteries (rat mesenteric arteries)
1 | Cc1ccc(-c2cc(C(F)(F)F)nn2-c2ccc(S(N)(=O)=O)cc2)cc1 [celecoxib] | enhanced | effective activator | reverse AVP-induced basilar artery constriction | concentration-dependent vasodilation | – | – | – | – | – | –
2 | CCOC(=O)Nc1ccc(NCc2ccc(F)cc2)nc1N [flupirtine] | reversible enhancement | – | – | – | fully reversed | restoring the currents to near control levels | lower systolic blood pressure | significant dose-dependent decreases | significant dose-dependent decreases | dilate rat mesenteric arteries
